System: INS-1E rat beta cells, no cytokines, CellTiter-Glo ATP, 48 h
Assay: cytokine-free beta-cell viability effect – INS-1E rat cells, ATP luminescence, cherry pick, counter-screen for beta-cell apoptosis protection project, dose response (AID 463229)

SMILES: COc1ccccc1C(=O)NNC(=S)NC(=O)c1ccco1
- AC50: 11.8 µM

Reference: PubChem BioAssay AID463229 (Broad Institute, 2010)
